{"source": "the supplement of paper PMC12823440", "about": "“Inhibitors supercharge kinase turnover through native proteolytic circuits” (Nature, 2025)", "note": "The other results are listed elsewhere or left out. The calls rarely recur for the same compound in another form.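 Kinases were expressed as nanoluciferase fusions in K562 cells and luminescence was read every 4 h between 2 and 18 h as percent of control, DMSO set to 100% and a positive control to 0%. A time point counts as decreased when the signal drops significantly (2 sigma). The hit call is the authors' own, does not follow from the count of time points alone, and its rule is not shown.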", "data": [{"target": "FGR (UniProt P09769)", "experiment": "kinase-Nluc reporter destabilization hit call (1 = scored as downregulated) (binary); higher = compound decreases kinase abundance", "conditions": "K562; 2-18 h", "values": [{"compound": "CN(C)C(=O)c1ccc(Cn2c(C(=O)O)cc3c(Br)cc(Sc4ccc(Cl)c(Cl)c4)cc32)cc1", "note": "[Rheb inhibitor NR1] (10 µM)", "kinase-Nluc reporter destabilization hit call": "inactive: 0"}, {"compound": "COc1ccc(/C=C/c2cc(OC)c(OC)c(OC)c2)cc1", "note": "(2.5 µM)", "kinase-Nluc reporter destabilization hit call": "inactive: 0"}, {"compound": "C/C(O)=C(\\C#N)C(=O)Nc1cc(Br)ccc1Br", "note": "(10 µM)", "kinase-Nluc reporter destabilization hit call": "inactive: 0"}, {"compound": "Cc1n[nH]cc1-c1cc2nc([C@@H]3CC4CCN3CC4)[nH]c(=O)c2s1", "note": "[Simurosertib] (2.5 µM)", "kinase-Nluc reporter destabilization hit call": "inactive: 0"}, {"compound": "O=c1[nH]c2ccccc2n1C1CCN(Cc2ccc(-c3[nH]c4cc5ncnc5cc4nc3-c3ccccc3)cc2)CC1", "note": "[AKT inhibitor VIII] (2.5 µM)", "kinase-Nluc reporter destabilization hit call": "inactive: 0"}, {"compound": "CCOC(=O)c1c(/C(C#N)=C\\N)c2ccc(Cl)c(Cl)c2n1C", "note": "(10 µM)", "kinase-Nluc reporter destabilization hit call": "inactive: 0"}, {"compound": "O=C(N[C@@H](COc1ccc2[nH]c(=O)[nH]c2c1)c1ccccc1)c1cccn(Cc2ccc(F)c(F)c2)c1=O", "note": "(2.5 µM)", "kinase-Nluc reporter destabilization hit call": "inactive: 0"}, {"compound": "CC1=C[C@]23C(=O)[C@@H](C=C(CO)[C@@H](O)[C@]2(O)[C@H]1O)[C@H]1[C@@H](C[C@H]3C)C1(C)C", "note": "[Ingenol] (10 µM)", "kinase-Nluc reporter destabilization hit call": "inactive: 0"}, {"compound": "N#CC(C#N)=NNc1cccc(Cl)c1", "note": "(2.5 µM)", "kinase-Nluc reporter destabilization hit call": "inactive: 0"}, {"compound": "CC(=O)c1c(O)c(C)c(O)c(Cc2c(O)c3c(c(C(=O)/C=C/c4ccccc4)c2O)OC(C)(C)C=C3)c1O", "note": "[Rottlerin] (2 µM)", "kinase-Nluc reporter destabilization hit call": "inactive: 0"}, {"compound": "CCCS(=O)(=O)Nc1ccc(F)c(-n2cc(-c3cncnc3)c3nc(N(C)C4CCN(CC)CC4)ccc32)c1F", "note": "(2 µM)", "kinase-Nluc reporter destabilization hit call": "inactive: 0"}]}]}
